Assay results from article PMC12242767.
These are yes or no findings as the source states them, for the method shown. In cells and extracts the contact can be indirect.

Target: T1, Aco1 (S. cerevisiae) (UniProt P19414)
T1 sequence: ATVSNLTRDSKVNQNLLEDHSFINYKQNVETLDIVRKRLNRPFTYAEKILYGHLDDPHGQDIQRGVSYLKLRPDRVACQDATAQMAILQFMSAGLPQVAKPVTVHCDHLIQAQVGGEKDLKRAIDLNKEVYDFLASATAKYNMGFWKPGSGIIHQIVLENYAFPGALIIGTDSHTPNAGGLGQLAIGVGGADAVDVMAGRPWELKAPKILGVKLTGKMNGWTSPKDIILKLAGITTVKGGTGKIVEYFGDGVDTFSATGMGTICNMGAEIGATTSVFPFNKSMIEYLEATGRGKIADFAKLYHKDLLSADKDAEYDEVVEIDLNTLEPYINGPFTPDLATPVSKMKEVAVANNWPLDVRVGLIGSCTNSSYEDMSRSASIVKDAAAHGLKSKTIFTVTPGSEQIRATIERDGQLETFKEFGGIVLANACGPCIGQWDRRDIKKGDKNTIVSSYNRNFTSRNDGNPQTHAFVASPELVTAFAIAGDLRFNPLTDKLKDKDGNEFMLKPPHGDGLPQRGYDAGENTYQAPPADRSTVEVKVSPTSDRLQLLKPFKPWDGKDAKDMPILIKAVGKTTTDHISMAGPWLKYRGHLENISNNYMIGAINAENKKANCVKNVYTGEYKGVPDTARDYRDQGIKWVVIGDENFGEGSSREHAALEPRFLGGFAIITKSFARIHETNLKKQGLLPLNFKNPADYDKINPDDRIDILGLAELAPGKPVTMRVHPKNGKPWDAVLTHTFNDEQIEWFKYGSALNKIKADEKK
Experiment: co-sedimentation; linear sucrose gradient (0.3–1 M) of mitochondrial lysate in 1% DDM, 10 mM Tris–HCl pH 7.4, 10 mM KOAc, 0.5 mM Mg(OAc)2, 10 mM EDTA; 164 000 x g 1 h 4°C; fractions blotted; WT and cbp3Δ, cbp1Δ, mrx4Δ strains

B1: Mrx4 (protein, UniProt Q12467 28-430)
chain: VSHARSGGAKFGGRNVFNIFDSKTPDSVRIKAFKNTIYQSAMGKGKTKFSAMEINLITSLVRGYKGEGKKNAINPLQTNVQILNKLLLTHRLTDKDILEGMNLAAGPVNVAIPRDITPQEEKKKVELRNRKAENMDLHPSRKMHIKELLHSLNLDMCNDEEVYQKISLYLQKNEESRTSVGASQQNHVDIDINSLKRYLQNIEKKARQKSAIDKQKKNQARIYQWNTQSFSEIVPLSAGNILFKREPNRLWKRLQNGISVFLGSNGGGKKSKTTKKVLQGNNILLHSLENNKDMTLSNNFDHSVFNINFTDLFGVINASGSPPDRVLNEINEIELKGWKCVGNLYDNNKIVVFQSSNPLLEDTKIPQKSFTNSKRFLISLSALLASFFAYYRYRLSQRQESKK
binding: no binding
